From patent publication US20200246316A1, “METHODS OF TREATING POST-SURGICAL PAIN WITH A THIAZOLINE ANTI-HYPERALGESIC AGENT” (CERSCI THERAPEUTICS, INC., priority 2019, published 2020)
Some results were stated once for a whole list of compounds, not compound by compound.

Test system: rat hind paw incision model
Assay: Brennan incisional pain model, prophylactic paradigm
Format: in vivo
Details: 24-, 48-, 72-h post-incision; Compound 1 30 mg/kg PO, celecoxib 30 mg/kg PO, morphine 10 mg/kg SC
Excerpt: Two incisional pain models were used to assess Compound 1 effects on hyperalgesia. The first model is referred to as the Brennan model in which, under anesthesia, a 1 cm longitudinal incision to the skin and underlying fascia of a rat hindpaw is made. The second is a variation but is a more invasive procedure in which the skin and muscle are spread apart using forceps which creates a longer-lasting hypersensitivity.
Using the Brennan protocol and a prophylactic paradigm, Compound 1 (3 doses given PO) or vehicle was administered 15 min prior to incision. At the 24-, 48-, and 72-h time points post-incision, mechanical thresholds were obtained (manual von Frey filament, using up/down method).
In a subsequent experiment, the same paradigm was used with Compound 1 administered at a dose of 30 mg/kg PO along with positive control group consisting of celecoxib (30 mg/kg PO), morphine (10 mg/kg SC), and vehicle.

Cc1ccc(-c2cc(C(F)(F)F)nn2-c2ccc(S(N)(=O)=O)cc2)cc1 [celecoxib, reference compound]
mechanical withdrawal thresholds: 13 to 18 g
